Values quoted from earlier work, collected in patent US10662198B2, “Polymorphic form of compound, preparation method and use thereof” (QILU PHARMACEUTICAL CO., LTD., priority 2017, dated 2020).
At least one structure is not confirmed: it was looked up by name or label, or the drawing left a doubt.

Tested on: Hepatitis B virus
Conditions: Science, 299 (2003), 893-896; cited from earlier work

Compound: Nc1ccn([C@@H]2CS[C@H](CO)O2)c(=O)n1 [Lamivudine]
- IC50: 300 nM
